Assay results as given in the supplement of paper PMC10338343.
± gives the standard deviation. This is one part of the list. The uncertainty is large for many entries.

System: EfPiwi piRISC loaded with L1MC piRNA (26 nt)
Experiment: pre-steady-state target cleavage rate (min^-1); guide: L1MC piRNA 5'p-UAACUAAAUACUAUGCAAGCUGUAGG; MIWI and MILI are mouse PIWI proteins and EfPiwi is from a freshwater sponge; tags in brackets are library labels; higher = faster piRNA-guided slicing of the target
Details: auxiliary factor: 500 nM Ephydatia muelleri Gtsf1
Method: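 Cleave-'n-Seq: a library of target RNAs (target site in constant flanks) at […] was incubated with 1 nM active freshwater sponge Ephydatia fluviatilis Piwi piRISC (synthetic 5'-monophosphorylated piRNA guide) with or without 500 nM EmGtsf1 at 33 °C for 1 min to 16 h. Uncleaved targets were sequenced and the pooled three trials fitted to a burst-and-steady-state model to give the pre-steady-state cleavage rate (min^-1). Sequence is the target site only. Fits with R² ≤ 0 are excluded.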

Row | Sequence | pre-steady-state target cleavage rate
1 | UCCUGGAUCAGCUUGCAUAGAAUUUACUUA | 0.000409 ± 0.013
2 | UCCUGGAUCAGUUUGCAUAGUAUUUAGUUA | 0.128 ± 0.021
3 | UCCUGGAUGUCGAACCAUAGUAUAUAGUUA | 0.00012 ± 0.019
4 | UCCUGCUACAGCUUGCAAUCUAUUUAGUAA | 0.000776 ± 0.0062
5 | UCCUGGAUGUCGAAGCAUAGUAUAAAGUUA | 0.000718 ± 0.013
6 | UCCUGGAUGAGCAUGCAUAGAAUUUAGUUA | 0.00156 ± 0.0029
7 | UCCUGGUACAGCUUGCAUAGUAUUAACAAA | 0.00261 ± 0.0023
8 | UCCUGGAUGUCCUUGCAUAGUAUAUAGUAA | 0.00158 ± 0.0047
9 | UCCUGGUACAGCUUGCAUAGUAUUUAUGUUA | 0.00329 ± 0.0024
10 | UCCUCCUACAGCUUGCAUAGUUAAUAGUUA | 0.00703 ± 0.0035
11 | UCCUGCUACAGCUUGCAAUCUAUUUUCAAA | 0.000242 ± 0.011
12 | UCCUGGAUGUCGAUGCAUUAGUAUUUAGUUA | 0.000197 ± 0.014
13 | UCCUGCUACAGCUUGCAUUCAAUUUAGUAA | 0.00147 ± 0.0035
14 | UCCUGGAUCAGCUUGCAUAAGUAUUUAGUUA | 0.00278 ± 0.0031
15 | UCCUGGAACAGCAUGCUUAGUAUUUAGUUA | 0.00591 ± 0.0025
16 | UCCUGGAUGUCGAUGCAUCGUAUUUAGUUA | 0.00141 ± 0.0047
17 | UCCUGGAUGUCGUUGCAUAGUAUUUGUUA | 0.000242 ± 0.014
18 | UCCUGCUACAGCUUGCAUUGUAUUUACAAA | 0.00313 ± 0.0028
19 | UCCUGCUACAGCUUGCACUAGUAUUUAGUUA | 0.00557 ± 0.0023
20 | UCCUGGUACAGCUUGCAUAGUUUUUUGUUA | 0.00135 ± 0.0065
21 | UCCUGCUACAGCUUGCAUAGUAAAAAGUAA | 0.00322 ± 0.0027
22 | UCCUGGAUGUCCUUGCAUAGUAUUUGAGUUA | 0.00517 ± 0.0037
23 | UCCUGGAUGUGCUUGCAUACAUUUUAGUAA | 0.000939 ± 0.0074
24 | UCCUGGAUGUGGUUGCAUUGUAUUUAGUUA | 0.00175 ± 0.005
25 | UCCUGGAACAGCUUGCAUAGUAAUUUCAAA | 0.00085 ± 0.004
26 | UCCUGGAUGUCGAACGUAUCUAUUUAGUUUA | 0.000182 ± 0.021

Same assay, conditions: auxiliary factor: none (no Gtsf1)

Row | Sequence | pre-steady-state target cleavage rate
27 | UCCUGGAUGAGCAUGCAUAGAAUUUAGUUA | 0.000711 ± 0.011
28 | UCCUGGUACAGCUUGCAUAGUAUUUAUGUUA | 0.000967 ± 0.014
29 | UCCUGCUACAGCUUGCAAUCUAUUUUCAAA | < 0.0001
30 | UCCUGCUACAGCUUGCAUUCAAUUUAGUAA | 0.000224 ± 0.026
31 | UCCUGGAACAGCAUGCUUAGUAUUUAGUUA | 0.0015 ± 0.0063
32 | UCCUGGAUGUCGAUGCAUCGUAUUUAGUUA | < 0.0001
33 | UCCUGCUACAGCUUGCAUUGUAUUUACAAA | 0.000437 ± 0.011
34 | UCCUGCUACAGCUUGCACUAGUAUUUAGUUA | 0.000639 ± 0.0082
35 | UCCUGCUACAGCUUGCAUAGUAAAAAGUAA | 0.000248 ± 0.022
36 | UCCUGCUACAGGAUGCAUAGUAUUUAGUAA | 0.000186 ± 0.034
37 | UCCUGGAUGUCCUUGCAUAGUAUUUGAGUUA | 0.00047 ± 0.014
38 | UCCUGGAUGUGCUUGCAUACAUUUUAGUAA | < 0.0001
39 | UCCUGGAUGUGGUUGCAUUGUAUUUAGUUA | 0.000916 ± 0.013
40 | UCCUGGAACAGCUUGCAUAGUAAUUUCAAA | 0.000409 ± 0.011
41 | UCCUGGAUGUCGAACGUAUCUAUUUAGUUUA | 0.000279 ± 0.017
